Measured values published in patent US8071627B2, “2-pyridinylethylcarboxamide derivatives and their use as fungicides” (Bayer SAS, priority 2003, dated 2011).
Some entries share one result that the patent states for a list of compounds.

Columns and labels:
[1] = system: Alternaria brassicae; test: In vivo test on Alternaria brassicae (leaf spot of crucifers), radish plants, preventive spray; conditions: 330 ppm; radish plants (Pernot variety); sprayed 24 hours before contamination; grading 6 to 7 days after contamination vs control plants
Method: (§1) The active ingredient tested is prepared by potter homogenisation in a concentrated suspension type formulation at 100 g/l. This suspension is then diluted with water to obtain the desired active material concentration.
Radish plants (Pernot variety) in starter cups, sown on a 50/50 peat soil-pozzolana substrate and grown at 18-20° C., are treated at the cotyledon stage by spraying with the aqueous suspension described above.
Plants, used as controls, are treated with an aqueous solution not containing the active material.
After 24 hours, the plants are contaminated by spraying them with an aqueous suspension of Alternaria brassicae spores (40,000 spores per cm^3). The spores are collected from a 12-13-day-old culture.
The contaminated radish plants are incubated for 6-7 days at about 18° C., under a humid atmosphere.
Grading is carried out 6 to 7 days after the contamination, in comparison with the control plants.

[2] = system: Pyrenophora teres; test: In vivo test on Pyrenophora teres (barley net blotch), barley plants, preventive spray; conditions: 330 ppm; barley plants (Express variety); sprayed 24 hours before contamination; grading 12 days after contamination vs control plants
[3] = system: Erysiphe graminis f. sp. tritici; test: In vivo test on Erysiphe graminis f. sp. tritici (powdery mildew of wheat), wheat plants, preventive spray; conditions: 330 ppm; wheat plants (Audace variety); sprayed 24 hours before contamination; grading 7 to 14 days after contamination vs control plants
[4] = system: Botrytis cinerea; test: In vivo test on Botrytis cinerea (cucumber grey mould), cucumber plants, preventive spray; conditions: 330 ppm; cucumber plants (Marketer variety); sprayed 24 hours before contamination; grading 5/7 days after contamination vs control plants
Method: as §1
Cucumber plants (Marketer variety) in starter cups, sown on a 50/50 peat soil-pozzolana substrate and grown at 18-20° C., are treated at the cotyledon Z11 stage by spraying with the aqueous suspension described above. Plants, used as controls, are treated with an aqueous solution not containing the active material.
After 24 hours, the plants are contaminated by depositing drops of an aqueous suspension of Botrytis cinerea spores (150,000 spores per ml) on upper surface of the leaves. The spores are collected from a 15-day-old culture and are suspended in a nutrient solution-composed of: • 20 g/L of gelatin • 50 g/L of cane sugar • 2 g/L of NH4NO3 • 1 g/L of KH2PO4
The contaminated cucumber plants are settled for 5/7 days in a climatic room at 15-11° C. (day/night) and at 80% relative humidity.
Grading is carried out 5/7 days after the contamination, in comparison with the control plants.

| Structure (SMILES) | protection (good (at least 50%) to total) [1] | protection (good (at least 50%) to total) [2] | protection (good (at least 50%) to total) [3] | protection (good (at least 50%) to total) [4] |
| --- | --- | --- | --- | --- |
| CCC(CNC(=O)c1cn(C)nc1C(F)(F)F)c1ncc(C(F)(F)F)cc1Cl (stereo not drawn) [Compound 15, N-{2-[3-chloro-5-(trifluoromethyl)-2-pyridinyl]butyl}-1-methyl-3-(trifluoromethyl)-1H-pyrazole-4-carboxamide] | at least 50% | at least 50% | at least 50% |  |
| Cn1cc(C(=O)NCC(C)(C)c2ncc(C(F)(F)F)cc2Cl)c(C(F)(F)F)n1 [Compound 24, N-{2-[3-chloro-5-(trifluoromethyl)-2-pyridinyl]-2-methylpropyl}-1-methyl-3-(trifluoromethyl)-1H-pyrazole-4-carboxamide] |  | at least 50% |  | at least 50% |
| CCC(Cc1ncc(C(F)(F)F)cc1Cl)NC(=O)c1sccc1I (stereo not drawn) [Compound 32, N-(1-{[3-chloro-5-(trifluoromethyl)-2-pyridinyl]methyl}propyl)-3-iodo-2-thiophenecarboxamide] | at least 50% | at least 50% |  |  |
| O=C(NC(Cc1ncc(C(F)(F)F)cc1Cl)c1ccccc1)c1sccc1I (stereo not drawn) [Compound 37, N-{2-[3-chloro-5-(trifluoromethyl)-2-pyridinyl]-1-phenylethyl}-3-iodo-2-thiophenecarboxamide] | at least 50% | at least 50% |  |  |
